Hit rate of the full screen: of about 1,400 compounds, fewer than 10 were called active. Another 8% or so got no clear call; they are omitted. The call rests on the fitted dose curve; in most records, active means well fitted curve in the direction sought with a large enough effect; inconclusive means small, poorly fitted or top-dose-only effect, or another doubt; inactive means no such curve, though single readings can be large or run the other way. The list shows a part of the results.

The chains behind the UniProt entries cited, without tags or fusion partners.
UniProt Q8NER1, whole entry, looked up: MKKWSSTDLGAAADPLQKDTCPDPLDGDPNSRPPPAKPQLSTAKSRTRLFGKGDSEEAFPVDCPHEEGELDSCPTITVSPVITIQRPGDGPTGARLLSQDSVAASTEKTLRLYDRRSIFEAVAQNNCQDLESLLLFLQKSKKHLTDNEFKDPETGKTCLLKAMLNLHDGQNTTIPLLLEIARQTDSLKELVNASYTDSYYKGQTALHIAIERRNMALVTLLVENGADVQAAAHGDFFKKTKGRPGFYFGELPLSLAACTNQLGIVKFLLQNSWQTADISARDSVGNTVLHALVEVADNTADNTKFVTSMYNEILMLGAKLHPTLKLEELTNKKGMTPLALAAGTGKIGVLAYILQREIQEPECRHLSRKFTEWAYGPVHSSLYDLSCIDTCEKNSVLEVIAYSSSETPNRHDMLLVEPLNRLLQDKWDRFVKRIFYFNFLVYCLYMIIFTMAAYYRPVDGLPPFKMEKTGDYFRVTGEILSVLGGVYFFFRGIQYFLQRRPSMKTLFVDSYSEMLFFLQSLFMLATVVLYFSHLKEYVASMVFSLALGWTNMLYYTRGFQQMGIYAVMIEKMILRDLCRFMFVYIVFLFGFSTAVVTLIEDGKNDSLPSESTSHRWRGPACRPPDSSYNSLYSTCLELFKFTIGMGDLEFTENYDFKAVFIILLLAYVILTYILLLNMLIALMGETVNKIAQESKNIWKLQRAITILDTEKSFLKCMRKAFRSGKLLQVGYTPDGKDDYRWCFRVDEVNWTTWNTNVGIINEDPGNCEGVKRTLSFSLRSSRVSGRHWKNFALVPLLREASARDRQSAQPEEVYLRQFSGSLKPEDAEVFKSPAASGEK

This assay deals with Transient receptor potential cation channel subfamily V member 1 (Homo sapiens) (UniProt Q8NER1). The assay can be described thus: qHTS Assay for Compounds that Act as Potentiators of the Vanilloid Receptor 1: Hit Validation. Further: % of control where 0% means no effect. The following applies: TRPV1-expressing cells, Fluo-8 calcium influx, capsaicin EC20; series mostly up to 42.1 µM; activity change, positive = potentiation: at the top concentration. A digest of the protocol: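 Calcium influx via Fluo-8 fluorescence (480/520 nm) on FDSS: 10 s baseline, 3 min compound read, 2 min read after EC20 capsaicin. TRPV1-expressing cells plated 2000/well, grown overnight at 35.5 °C.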
In the case of `CCCCCCSc1ccc([C@@H]2[C@H]3C(=O)N(C)C(=O)[C@H]3[C@]3(C(=O)OC)CCCCN23)cc1`, the “activity change, positive = potentiation” value is inactive: 0.0026%.
With `CCCC12CN3CC(C)(CN(C1)C31CCCCC1)C2=O`, the “activity change, positive = potentiation” value is inactive: -5%.
For `Cc1ccc(C2=NN(C)c3nc4ccccc4n3C2)cc1`, the “activity change, positive = potentiation” value was inactive: -39%.
For `O=C(CSc1nc(O)c(C2CCCCC2)c(=O)[nH]1)NCC1CCCO1` (stereo not given), the “activity change, positive = potentiation” value is inactive: 2.23%.
As for `CC(=O)Nc1ccc(S(=O)(=O)NCCC(=O)OCc2nnc(-c3ccccc3)o2)cc1`, the “activity change, positive = potentiation” value is inactive: 6.57%.
With `CC1CCC(C(=O)NNC(=O)c2cc(-c3ccco3)[nH]n2)CC1` (stereo not given) the figure was inactive: -8.63%; with `COc1ccc(N(CC(=O)NCCSc2ccccn2)S(=O)(=O)c2ccccc2)cc1Cl`, inactive: 3.24%; with `O=C(/C=C\c1ccccc1OC(=O)c1ccccc1F)c1cc2ccccc2o1`, inactive: -33.8%.
With `COC(=O)CCCC1=CC2=CC(=O)C(C)(OC(=O)c3cccs3)C(=O)C2=CN1CCCCO` (stereo not given) the figure was inactive: -2.94%; with `Cc1csc(N(C)C(=O)CSc2nnc(COc3ccccc3C)o2)n1`, inactive: 10.6%; with `Nc1ccc2c(c1)OCCOCCOCCOCCOCCO2`, inactive: -38.3%.
`Cc1cc(C)nc(Nc2ccccc2F)n1`: the “activity change, positive = potentiation” value was inactive: -5.49%.
`COc1ccc(CCN(C)C(=O)CNC(=O)Cc2cccc3ccccc23)cc1OC`: the “activity change, positive = potentiation” value is inactive: 4.22%.
In the case of `COc1ccc(Br)cc1/C=N/n1c(-c2ccccc2)n[nH]c1=S`, the “activity change, positive = potentiation” value was inactive: 5.38%.
For the molecule `COC(=O)c1cccc(C23CC4(C2)[C@H](CN(Cc2ccc(-c5ccccc5)cc2)[C@@H]4c2ccccc2)C3c2ccccc2)c1` (stereo not given in full), the “activity change, positive = potentiation” value is inactive: 4.78%.
Next, `COc1ccc2nc(NC(=O)c3ccc(Br)s3)sc2c1`: inactive: -38.7%; `CCN1CCN(C(=O)c2cc3cc4cc(OC)ccc4nc3s2)CC1`: inactive: -2.74%.
On to `CCCOc1ccc(/C=C/C(=O)N2CCOCC2)cc1`, for which the “activity change, positive = potentiation” value was inactive: -38.9%.
In the case of `Cc1ccc(NC(=S)Nc2cccc3cnccc23)cc1C`, the “activity change, positive = potentiation” value is inactive: -6.89%.
Regarding `CCn1c(CC(=O)Nc2ccc(Cl)c(Cl)c2)nnc1SCc1ccc(C)cc1`, the “activity change, positive = potentiation” value was inactive: 0.598%.
With `CC(C)(C)c1ccc(/C=C/C(=O)N2CCCCC2)cc1` the figure was inactive: -38.6%; with `CCCCC(=O)Nc1ccc(C(=O)Nc2ccc(S(=O)(=O)N3CCCC3)cc2)cc1`, inactive: -8.84%; with `CCCCC1=CC2=CC(=O)C(C)(OC(=O)CC)C(=O)C2=CN1c1ccccc1` (stereo not given), inactive: 0.364%.
On to `CC(C)(C)N=C1NN=C(c2ccc(S(=O)(=O)N3CCCCC3)cc2)CS1`, for which the “activity change, positive = potentiation” value was inactive: 10.5%.
Regarding `CC1CCCCN1C(=O)COC(=O)c1ccc(=O)n(Cc2ccccc2)n1` (stereo not given), the “activity change, positive = potentiation” value is inactive: 4.62%.
Next, `O=C(Nc1ccc(Br)cn1)c1ccc(Cl)s1`: inactive: -38.1%; `Cc1ccc(S(=O)(=O)N2CCOCC2)cc1C(=O)Nc1ccc2c(c1)CCC2`: inactive: -31.5%.
Consider `COc1cc2c(C(=O)N3CCOCC3)c(CSc3ccccc3)n(C)c2cc1Br`, for which the “activity change, positive = potentiation” value was inactive: -3.18%.
Next, `COc1ccc(CNC(=O)COC(=O)/C=C/c2cccc(Br)c2)cc1OC`: inactive: -28.3%; `COc1cccc(/C=C/C(=O)Nc2ccc3[nH]c(=O)[nH]c3c2)c1`: inactive: -38%; `COc1nc(OC)nc(N2CCC(NC(=O)C(Cc3cccc(OC)c3OC)NC(C)=O)CC2)n1` (stereo not given): inactive: -3.2%.
With `CC(=O)NCC(=O)N(Cc1ccco1)C1(C(=O)NC2CCCC2)CCCCC1` the figure was inactive: 2.18%; with `COc1ccc(COC(=O)N/N=C(\C)CC(=O)NCc2ccc(Cl)cc2)cc1`, inactive: -6.22%; with `CCN(c1ccccc1)S(=O)(=O)c1ccc2c(c1)N(C(C)=O)CCO2`, inactive: -20.4%.
As for `O=C(Nc1ccccc1)c1cc(-c2ccccc2Cl)no1`, the “activity change, positive = potentiation” value is inactive: -38.8%.
Take `O=C(c1ccccc1F)N1CCN(c2ccccn2)CC1`: the “activity change, positive = potentiation” value was inactive: -10.9%.
Consider `Cc1ccc(NC2CCCN(C(=O)CCC(=O)c3ccccc3)C2)cc1C` (stereo not given), for which the “activity change, positive = potentiation” value is inactive: -38.3%.
Consider `O=C(c1cc(C2CC2)nc2ccccc12)N1N=C(C(F)F)CC1(O)C(F)F` (stereo not given), for which the “activity change, positive = potentiation” value is inactive: -3.7%.
As for `O=C(O/N=C1\CCS(=O)(=O)c2sccc21)c1c(F)cccc1F`, the “activity change, positive = potentiation” value was inactive: 6.48%.
Regarding `Cc1ccc(OCC(=O)NC(C)c2ccccc2)cc1` (stereo not given), the “activity change, positive = potentiation” value is inactive: -12.5%.
As to `O=C(NCc1ccccc1)NS(=O)(=O)c1ccccc1Cl`, the “activity change, positive = potentiation” value is inactive: -13.3%.
With `Cc1cccc(NC(=O)c2ccc(S(=O)(=O)C(F)F)cc2)c1C` the figure was inactive: -27.8%; with `Cc1ccnc(NC(=O)CCC(=O)N(CC(=O)NC2CCCCC2)Cc2cccs2)c1`, inactive: -5.42%.
As to `CCn1cnc2cc(NCc3ccc(OC)cc3)ccc21`, the “activity change, positive = potentiation” value is inactive: -4.4%.
With `Cn1c(=O)n(CC(=O)N2CCN(c3nnc(-c4ccccc4)c4ccccc34)CC2)c2ccccc21`, the “activity change, positive = potentiation” value is inactive: -6.24%.
Next, `COC(=O)c1c(C(=O)OC)c(-c2ccccc2)n2c1CS(=O)C2` (stereo not given): inactive: 9.33%; `Cc1ccccc1N1CCN(c2ncnc3c2cnn3Cc2ccc(Cl)cc2)CC1`: inactive: -3.54%.
Next, `O=C(CSc1nc(C2CC2)nc2ccccc12)N1CCCCC1`: inactive: -6.58%.
Turning to `COc1cc(/C=C/C(=O)O)ccc1S(=O)(=O)N1CCCc2ccccc21`, the “activity change, positive = potentiation” value is inactive: -7.2%.
With `CC(C)c1ccc(NCCC(=O)c2cccs2)cc1` the figure was inactive: -39%; with `Cc1ccc2c(c1)[C@H]1[C@H](CO2)[C@H](c2ccccc2)[C@]2(C)C(=O)Nc3cc(Cl)ccc3C(=O)N12`, inactive: 3%.
As to `CC(C)Oc1ccc(C(=O)O)c(C(=O)O)c1`, the “activity change, positive = potentiation” value was inactive: -6.24%.
As for `CCSC1=NCCN1S(=O)(=O)c1ccc(F)cc1`, the “activity change, positive = potentiation” value was inactive: -7.11%.
Regarding `O=C(CCCCn1c(=O)c2ccccc2n(CC(=O)NC2CCCC2)c1=O)NCc1ccco1`, the “activity change, positive = potentiation” value was inactive: -5.96%.
Consider `COCCN(CCOC)S(=O)(=O)c1ccc(C(=O)Nc2nnc(C3CC3)o2)cc1`, for which the “activity change, positive = potentiation” value was inactive: -6.89%.

Source of the values: PubChem BioAssay AID623959 (National Center for Advancing Translational Sciences (NCATS), 2012).
